This passage reports binding signal results from PMC7819943, “Rice protein-binding microarrays: a tool to detect cis-acting elements near promoter regions in rice”.

Sequences of proteins named here, by UniProt entry; tags and fusion partners are left off.
UniProt Q0JBA9, entry or part of it: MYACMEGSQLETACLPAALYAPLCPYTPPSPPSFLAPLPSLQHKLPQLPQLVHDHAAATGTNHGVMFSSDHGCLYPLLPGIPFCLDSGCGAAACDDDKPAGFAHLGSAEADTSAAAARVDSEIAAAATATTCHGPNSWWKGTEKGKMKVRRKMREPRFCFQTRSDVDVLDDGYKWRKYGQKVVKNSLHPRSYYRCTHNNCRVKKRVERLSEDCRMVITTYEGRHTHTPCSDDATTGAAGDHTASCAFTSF

The other results are listed elsewhere or left out.

For the experiment, the target named is OsWRKY34 (Oryza sativa, UniProt Q0JBA9 1-250). The experiment in a line: protein-binding microarray (RPBM); PBS, 2% BSA, 51.3 ng/ul salmon testes DNA, 50 uM zinc acetate, 200 nM TF, 25 C, 1 h; high values mean tight binding. The following applies: protein: recombinant; tags: N-terminal polyhistidine and DsRed monomer fusion (pET32a); label: CyDye5-dUTP incorporated in the synthesized complementary strand; 3' TTTTT single-stranded linker to array surface; dsDNA, one strand shown. The essentials:
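A custom Agilent array was converted to double-stranded form by primer extension with Cy5-dUTP and blocked with 2% BSA. Protein at 200 nM in PBS with 2% BSA, salmon testes DNA and 50 µM zinc acetate was applied for 1 h at 25 °C, followed by washing. The proteins were polyhistidine–DsRed N-terminal fusions of transcription factors, expressed in E. coli BL21-CodonPlus and Ni–NTA-purified. The binding signal is per-feature fluorescence intensity (arbitrary units) from an Axon 4000B scanner.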
In the case of “CTCAACTCGGGATGACATTTGGGGTGTTTTTTTTTTGCAACGGAGTCACCTAGTGCAG”, the binding signal was 9820 fluorescence intensity (a.u.). For “TCGGTTTTTCTCCGCGGCGCTTTCACCGCTCTCTCTCTCTCGGAGTCACCTAGTGCAG”, the binding signal is 8490 fluorescence intensity (a.u.).

On to “CGGCACCACGCCTTTCTCGTCTCGTCTCGTCTCGTCTCATCGGAGTCACCTAGTGCAG”, for which the binding signal was 9020 fluorescence intensity (a.u.). In the case of “TTGTTGATTTGTGCCAGTTTTCTCCTATTTCAGTTAGTAGCGGAGTCACCTAGTGCAG”, the binding signal was 11400 fluorescence intensity (a.u.). Take “GCCAGCGACACCGCCGCCATCGTTCCCCACCGCCGCCATCCGGAGTCACCTAGTGCAG”: the binding signal is 13700 fluorescence intensity (a.u.). To “CACCCGCCTCGTTCGCTTCCATCCTCTCCGCAGTCCGCACCGGAGTCACCTAGTGCAG” belongs 8870 fluorescence intensity (a.u.); to “ACCATTAACTTTTTCTTAATTCGTTTCACTATTTTTTTAACGGAGTCACCTAGTGCAG”, 9500 fluorescence intensity (a.u.). Next, “AACCGGAGTCGCCCATGTCCATTTTAGGCTAAACAACTGACGGAGTCACCTAGTGCAG”: 10300 fluorescence intensity (a.u.); “CGTAATTTTTCCCACCAAATTTACCCTTTTACCTTTTTACCGGAGTCACCTAGTGCAG”: 8620 fluorescence intensity (a.u.). Take “CAGTGGCGGATCCACCTCCCGGGCAGGTCGGGCGGCCGCCCGGAGTCACCTAGTGCAG”: the binding signal was 8300 fluorescence intensity (a.u.). As for “GAAGTGGGTTTTCTTCTAGGACGGAGGGTGTACTTGACTACGGAGTCACCTAGTGCAG”, the binding signal was 8390 fluorescence intensity (a.u.). As for “AACCTCTCGCGATCTGCCTCGATCCCTTCTACTCCTACTCCGGAGTCACCTAGTGCAG”, the binding signal is 10100 fluorescence intensity (a.u.). Next, “CGTGGTCATCTTCCTCGCGCTCGTCTTCACGCCGCGCCGCCGGAGTCACCTAGTGCAG”: 8640 fluorescence intensity (a.u.); “TAGATTGATTGTTACTCCGTACATAACCTTGTCTTCTTCGCGGAGTCACCTAGTGCAG”: 8470 fluorescence intensity (a.u.). Next, “TCGATCGTTGGTTAGCGCGTACGTACGTCTTGGTCATTTGCGGAGTCACCTAGTGCAG”: 12800 fluorescence intensity (a.u.). As to “CTGGCCGTCACCGTCGCTCTTGTCGCCATCGTATCACCGTCGGAGTCACCTAGTGCAG”, the binding signal was 11000 fluorescence intensity (a.u.). Next, “CCGTATTCAAACTATCCGTATTTGTTTCCGCATCTGCTGACGGAGTCACCTAGTGCAG”: 9530 fluorescence intensity (a.u.); “CTAGCTGGTTGGATGACACTGATCATAGCTTGAACTTTACCGGAGTCACCTAGTGCAG”: 9500 fluorescence intensity (a.u.). Next, “ATCCCCAGCCTCCAATACCGGTCCCGTGCTTGTTTTTCTTCGGAGTCACCTAGTGCAG”: 9470 fluorescence intensity (a.u.); “ATTGCAATAATTATTCTTCTCTTTAGCAGCTACCCCTTCACGGAGTCACCTAGTGCAG”: 8990 fluorescence intensity (a.u.); “TCTCACGTACACCTCCGGTTTCTGATTCTTGCTTCGTGTGCGGAGTCACCTAGTGCAG”: 9430 fluorescence intensity (a.u.).

Consider “GTCGCCATCTTCCCATCCCCGCGCCGCCGTCCACCATGAGCGGAGTCACCTAGTGCAG”, for which the binding signal is 17200 fluorescence intensity (a.u.). To “CTGGGGAGCGGGTGGGCTGTCTGCATTGTTTAGCCCATGACGGAGTCACCTAGTGCAG” belongs 16100 fluorescence intensity (a.u.); to “GGCCAACTCATTGCTACTCGGTGGTTTCAATCTTGAGGATCGGAGTCACCTAGTGCAG”, 8070 fluorescence intensity (a.u.). To “CTGAGGGTTATGGTTTTGTTGAGTTCTTTTCTCATGCATCCGGAGTCACCTAGTGCAG” belongs 10600 fluorescence intensity (a.u.); to “TCAGGAAAGGTTAGTCATGCTTCAATTTCTCCCGTGCATGCGGAGTCACCTAGTGCAG”, 8110 fluorescence intensity (a.u.); to “GACGAATTACTTGTTTAAACGAAACGGATTGGGGTTTTCTCGGAGTCACCTAGTGCAG”, 9240 fluorescence intensity (a.u.). Next, “TTTTGCTTCTCAAGAACTTGTCACTGCTCCTCGGTCAAATCGGAGTCACCTAGTGCAG”: 9780 fluorescence intensity (a.u.); “TATAACATATGTCCCTTTTTTTCAATCCTGCTTACTAAAACGGAGTCACCTAGTGCAG”: 10100 fluorescence intensity (a.u.). In the case of “TTCATCTTATTTAATTTTTTTTTATGATTAGGATTTTTATCGGAGTCACCTAGTGCAG”, the binding signal is 8110 fluorescence intensity (a.u.). Next, “GAGAGAGAGAACGAGGAAGGCCAAAATTGACTTTTATTCGCGGAGTCACCTAGTGCAG”: 8480 fluorescence intensity (a.u.); “CCCTCGCGTCTCGTTGCGATCTCACCTTACGACGATCTCGCGGAGTCACCTAGTGCAG”: 8540 fluorescence intensity (a.u.); “GAGCGCGCGCCGTCGTCGTCGTCGTTTCGGTTGTTGTCGTCGGAGTCACCTAGTGCAG”: 8760 fluorescence intensity (a.u.). To “TGTTGCTTCTTCTAGTCCGCCCCGAGAGTCACGTGACACCCGGAGTCACCTAGTGCAG” belongs 8080 fluorescence intensity (a.u.). Next, “ACCCTGCCAATTCACGTGTTGTAGATCTTTTTTTTTCACTCGGAGTCACCTAGTGCAG”: 9750 fluorescence intensity (a.u.); “GCGTGCTGCAACCTGGGATTTTCTTTTTTCTTTTTTTTCTCGGAGTCACCTAGTGCAG”: 11700 fluorescence intensity (a.u.); “TACTTATCCACCGCTTTTTTGCTTTGGCCCTCTCATTCCTCGGAGTCACCTAGTGCAG”: 8660 fluorescence intensity (a.u.). For “CAACCGGCCTTAGCCTAGAGCCGCGACCCTGCTCTACTCACGGAGTCACCTAGTGCAG”, the binding signal is 8020 fluorescence intensity (a.u.).

Take “TTGCGCGCACCGTTTTTTTGACAAATTGACCCTTTTCAAACGGAGTCACCTAGTGCAG”: the binding signal was 8400 fluorescence intensity (a.u.). With “GTTGGAGCAGGAGCAGCTCTCGTCCTCCCTACCGCCAGCACGGAGTCACCTAGTGCAG”, the binding signal was 8540 fluorescence intensity (a.u.).

As to “TTGTTCTTCTCGCGTCCAAGCGTGTGTGTGTTGCAGGTTTCGGAGTCACCTAGTGCAG”, the binding signal is 8850 fluorescence intensity (a.u.). Next, “CGCCGCCGCCGCTTCCGCTCTCCTCTCCATCTCTCCCGCCCGGAGTCACCTAGTGCAG”: 9340 fluorescence intensity (a.u.); “CTCCCGGCGCCGCCCGTCAACCGCTCCGTCCTCGGCCTTTCGGAGTCACCTAGTGCAG”: 8660 fluorescence intensity (a.u.). To “TGGCCTTATATGTTGCTTGCCCTGATTCAAAAGTGGGCTACGGAGTCACCTAGTGCAG” belongs 8460 fluorescence intensity (a.u.). To “GGCCGGAGGGGAAGGGGCGGCCAGCGGTCTGCGATGGTGACGGAGTCACCTAGTGCAG” belongs 9360 fluorescence intensity (a.u.); to “CGGAAGCTTCTACTACTCGCATTCGATTCTTCTTCCATTCCGGAGTCACCTAGTGCAG”, 10700 fluorescence intensity (a.u.); to “AACGACCCTGACTCAATTCAAGCGCATATCAAATGCACAACGGAGTCACCTAGTGCAG”, 8360 fluorescence intensity (a.u.).

With “TCTCTCTCTCTCTCTCTCTCTTCTGACTTAGCTTTGTCAACGGAGTCACCTAGTGCAG”, the binding signal is 10700 fluorescence intensity (a.u.). As to “ATGAATTCATTCCTATTTGATGTTTGTGATTTGGATCCCACGGAGTCACCTAGTGCAG”, the binding signal is 9270 fluorescence intensity (a.u.). Next, “CACATGCACTCCACACTTACTCCCTCAGTACTAAAAAAACCGGAGTCACCTAGTGCAG”: 8210 fluorescence intensity (a.u.); “GTTTACTCCAAGATTCACATTTGACTTTCTTATGCCATAGCGGAGTCACCTAGTGCAG”: 9170 fluorescence intensity (a.u.); “ACCCAAACTATATAGTTTAGCTGCAAACTTCAGTCTTTTTCGGAGTCACCTAGTGCAG”: 8560 fluorescence intensity (a.u.). To “TGGCGTGGTCTCGTCTCTTCGTCTTCGGGTGTGCTCACCGCGGAGTCACCTAGTGCAG” belongs 9650 fluorescence intensity (a.u.); to “GCGCAACCTCGTCTCCGCCCCACTCGCCGAAAATATAAATCGGAGTCACCTAGTGCAG”, 9970 fluorescence intensity (a.u.).
